Experimental data published in patent publication US7410966B2, “Use of and some novel imidazopyridines” (AstraZeneca AB, priority 2002, dated 2008).
Structures can show the parent of a compound that is named as a salt. Some of these results come from one statement about several compounds together.

Molecular target: T1, recombinant human Itk kinase domain fused with GST (Homo sapiens, UniProt Q08881)
T1 construct: recombinant human Itk kinase domain fused with GST (Glutathione S-Transferase); GST (Glutathione S-Transferase); made in house; host or cells: High Five insect cells
T1 sequence (Q08881 363-615 limits assumed): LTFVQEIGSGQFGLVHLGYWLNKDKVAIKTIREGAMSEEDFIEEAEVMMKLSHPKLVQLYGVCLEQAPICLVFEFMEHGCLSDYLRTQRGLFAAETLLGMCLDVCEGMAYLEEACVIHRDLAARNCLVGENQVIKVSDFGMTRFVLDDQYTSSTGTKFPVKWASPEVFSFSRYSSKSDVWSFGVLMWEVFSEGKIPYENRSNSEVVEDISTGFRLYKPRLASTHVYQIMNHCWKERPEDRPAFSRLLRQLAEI
Assay: Itk LANCE TRF Assay
Format: biochemical
Conditions: 2 μM biotinylated peptide substrate, 50 μM ATP, 50 minutes RT, read-out: Inhibition of Kinase Itk (IC50 μM)

Structure (SMILES)	IC50 [µM]
N#Cc1ccccc1N1CCN(CCOc2ccc(-c3nc4cc(Br)cnc4[nH]3)cc2)CC1 [Example 107, 2-(4-{2-[4-(6-Bromo-3H-imidazo[4,5-b]pyridin-2-yl)phenoxy]ethyl}piperazin-1-yl)benzonitrile bis(trifluoroacetate)]	< 25
CN(CCO)CCOc1ccc(-c2nc3cc(Br)cnc3[nH]2)cc1 [Example 53, 2-[{2-[4-(6-Bromo-3H-imidazo[4,5-b]pyridin-2-yl)phenoxy]ethyl}(methyl)amino]ethanol bis(trifluoroacetate)]	< 25
COc1ccc(CNCCOc2ccc(-c3nc4cc(Br)cnc4[nH]3)cc2)cc1 [Example 69, N-{2-[4-(6-Bromo-3H-imidazo[4,5-b]pyridin-2-yl)phenoxy]ethyl}-N-(4-methoxybenzyl)amine bis(trifluoroacetate)]	< 25
Brc1cnc2[nH]c(-c3ccc(OCCNCCc4c[nH]c5ccccc45)cc3)nc2c1 [Example 116, N-{2-[4-(6-Bromo-3H-imidazo[4,5-b]pyridin-2-yl)phenoxy]ethyl}-N-[2-(1H-indol-3-yl)ethyl]amine bis(trifluoroacetate)]	< 25
Brc1cnc2[nH]c(-c3ccc(OCCNC4CCCC4)cc3)nc2c1 [Example 93, N-{2-[4-(6-Bromo-3H-imidazo[4,5-b]pyridin-2-yl)phenoxy]ethyl}-N-cyclopentylamine bis(trifluoroacetate)]	< 25
O=C1CCCN1CCCNCC(O)COc1ccc(-c2nc3cc(Br)cnc3[nH]2)cc1 (stereo not shown) [Example 155, 1-[3-({3-[4-(6-Bromo-3H-imidazo[4,5-b]pyridin-2-yl])phenoxy]-2-hydroxypropylamino)propyl]pyrrolidin-2-one bis(trifluoroacetate)]	< 25
Brc1cnc2[nH]c(-c3ccc(NCc4nccs4)cc3)nc2c1 [Example 193, N-[4-(6-Bromo-3H-imidazo[4,5-b]pyridin-2-yl)phenyl]-N-(1,3-thiazol-2-ylmethyl)amine bis(trifluoroacetate)]	< 25
Cc1c(Br)cnc2[nH]c(-c3ccc(OCCN4CCCCC4)cc3)nc12 [Example 258, 6-Bromo-7-methyl-2-[4-(2-piperidin-1-ylethoxy)phenyl]-3H-imidazo[4,5-b]pyridine]	< 25
NC(=O)C1CCN(CCOc2ccc(-c3nc4cc(Br)cnc4[nH]3)cc2)CC1 [Example 105, 1-{2-[4-(6-Bromo-3H-imidazo[4,5-b]pyridin-2-yl)phenoxy]ethyl}piperidine-4-carboxamide bis(trifluoroacetate)]	< 25
CN(CCOc1ccc(-c2nc3cc(Br)cnc3[nH]2)cc1)CCc1ccccc1 [Example 65, N-{2-[4-(6-Bromo-3H-imidazo[4,5-b]pyridin-2-yl)phenoxy]ethyl}-N-methyl-N-(2-phenylethyl)amine bis(trifluoroacetate)]	< 25
OC(COc1ccc(-c2nc3cc(Br)cnc3[nH]2)cc1)CN1CCCC1 (stereo not shown) [Example 122, 1-[4-(6-Bromo-3H-imidazo[4,5-b]pyridin-2-yl)phenoxy]-3-pyrrolidin-1-ylpropan-2-ol]	< 25
Cc1c(Cl)cnc2[nH]c(-c3ccc(OCCN4CCOCC4)c(NC[C@H]4CCCN4)c3)nc12 [Example 251, [5-(6-Chloro-7-methyl-3H-imidazo[4,5-b]pyridin-2-yl)-2-(2-morpholin-4-ylethoxy)phenyl][(2R)-pyrrolidin-2-ylmethyl]amine]	< 25
NC(=O)[C@@H]1CCCN1CCOc1ccc(-c2nc3cc(Br)cnc3[nH]2)cc1 [Example 109, 1-{2-[4-(6-Bromo-3H-imidazo[4,5-b]pyridin-2-yl)phenoxy]ethyl}prolinamide bis(trifluoroacetate)]	< 25
Nc1ccc(-c2ccc(-c3nc4cc(Br)cnc4[nH]3)o2)cc1 [Example 277, {4-[5-(6-Bromo-3H-imidazo[4,5-b]pyridin-2-yl)-2-furyl]phenyl}amine]	< 25
CC(=O)Nc1cccc(-c2c(Cl)cnc3[nH]c(-c4ccc(OCCN5CCOCC5)cc4)nc23)c1 [Example 240]	< 25
Clc1cnc2nc(-c3ccc(OCCN4CCOCC4)cc3)[nH]c2c1Oc1ccccc1 [Example 233, 6-Chloro-2-{4-[2-(4-morpholinyl)ethoxy]phenyl)[…]-7-phenoxy-1H-imidazo[4,5-b]pyridine]	< 25
O=CNC1CCN(c2c(Cl)cnc3nc(-c4ccc(OCCN5CCOCC5)cc4)[nH]c23)C1 (stereo not shown) [Example 215]	< 25

Structure (SMILES)	IC50 [µM]
Cc1c(Br)cnc2nc(-c3ccc(NS(=O)(=O)c4cn(C)cn4)cc3)[nH]c12 [Example 266, N-[4-(6-Bromo-7-methyl-1H-imidazo[4,5-b]pyridin-2-yl)phenyl]-1-methyl-1H-imidazole-4-sulfonamide]	< 25
O=[N+]([O-])c1ccc(-c2nc3cc(Cl)cnc3[nH]2)s1 [Example 275, 6-Chloro-2-(5-nitro-2-thienyl)-3H-imidazo[4,5-b]pyridine]	< 25
OC(CNCc1cccnc1)COc1ccc(-c2nc3cc(Br)cnc3[nH]2)cc1 (stereo not shown) [Example 151, 1-[4-(6-Bromo-3H-imidazo[4,5-b]pyridin-2-yl)phenoxy]-3-[(pyridin-3-ylmethyl)amino]propan-2-ol bis(trifluoroacetate)]	< 25
OCCN1CCN(CC(O)COc2ccc(-c3nc4cc(Br)cnc4[nH]3)cc2)CC1 (stereo not shown) [Example 162, 1-[4-(6-Bromo-3H-imidazo[4,5-b]pyridin-2-yl)phenoxy]-3-[4-(2-hydroxyethyl)piperazin-1-yl]propan-2-ol bis(trifluoroacetate)]	< 25
N#Cc1ccc(CNc2ccc(-c3nc4cc(Br)cnc4[nH]3)cc2)cc1 [Example 175, 4-({[4-(6-Bromo-3H-imidazo[4,5-b]pyridin-2-yl)phenyl]amino}methyl)benzonitrile bis(trifluoroacetate)]	< 25
Cc1c(Cl)cnc2[nH]c(-c3ccc(O)c([N+](=O)[O-])c3)nc12 [Example 248, 4-(6-Chloro-7-methyl-3H-imidazo[4,5-b]pyridin-2-yl)-2-nitrophenol]	< 25
CN(CCOc1ccc(-c2nc3cc(Br)cnc3[nH]2)cc1)CC(=O)N(C)C [Example 60, N^2-{2-[4-(6-Bromo-3H-imidazo[4,5-b]pyridin-2-yl)phenoxy]ethyl}-N^1,N^1,N^2-trimethylglycinamide bis(trifluoroacetate)]	< 25
OCC1CCCCN1CC(O)COc1ccc(-c2nc3cc(Br)cnc3[nH]2)cc1 (stereo not shown) [Example 159, 1-[4-(6-Bromo-3H-imidazo[4,5-b]pyridin-2-yl)phenoxy]-3-[2-(hydroxymethyl)piperidin-1-yl]propan-2-ol bis(trifluoroacetate)]	< 25
CCOC(=O)COc1ccc(-c2nc3cc(Br)cnc3[nH]2)cc1 [Example 42, Ethyl [4-(6-bromo-3H-imidazo[4,5-b]pyridin-2-yl)phenoxy]acetate]	< 25
Clc1ccc(CNc2ccc(-c3nc4cc(Br)cnc4[nH]3)cc2)cc1 [Example 184, N-[4-(6-Bromo-3H-imidazo[4,5-b]pyridin-2-yl)phenyl]-N-(4-chlorobenzyl)amine bis(trifluoroacetate)]	< 25
Cc1ncc(-c2nc3cc(Br)cnc3[nH]2)[nH]1 [Example 13, 6-Bromo-2-(2-methyl-1H-imidazol-5-yl)-3H-imidazo[4,5-b]pyridine]	< 25
Brc1cnc2[nH]c(-c3ccc(OCCNc4nnn[nH]4)cc3)nc2c1 [Example 118, N-{2-[4-(6-Bromo-3H-imidazo[4,5-b]pyridin-2-yl)phenoxy]ethyl}-1H-tetrazol-5-amine bis(trifluoroacetate)]	< 25
Clc1cnc2[nH]c(-c3ccc(OCCN4CCOCC4)cc3)nc2c1NCCN1CCOCC1 [Example 235, 6-Chloro-2-[4-(2-morpholin-4-ylethoxy)phenyl]-N-(2-morpholin-4-ylethyl)-3H-imidazo[4,5-b]pyridin-7-amine]	< 25
FC(F)(F)c1cnc(N2CCN(CCOc3ccc(-c4nc5cc(Br)cnc5[nH]4)cc3)CC2)c(Cl)c1 [Example 5]	< 25
O=C1CCCN1CCCNCCOc1ccc(-c2nc3cc(Br)cnc3[nH]2)cc1 [Example 88]	< 25
OC(COc1ccc(-c2nc3cc(Br)cnc3[nH]2)cc1)CN1CCC(O)(c2ccccc2)CC1 (stereo not shown) [Example 171, 1-{3-[4-(6-Bromo-3H-imidazo[4,5-b]pyridin-2-yl)phenoxy]-2-hydroxypropyl}-4-phenylpiperidin-4-ol bis(trifluoroacetate)]	< 25
N#Cc1ccc(-c2nc3cc(Br)cnc3[nH]2)cc1 [Example 24, 4-(6-Bromo-3H-imidazo[4,5-b]pyridin-2-yl)benzonitrile trifluoroacetate]	< 25
